Some of the results follow. These are raw signals, not scaled to a control.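 In the initial screen, polymyxin B was used at a concentration that permeabilizes Salmonella's outer membrane but not its inner membrane. Maximum growth was set by DMSO wells with or without polymyxin B. Since plates varied, data were ranked per plate, and compounds giving the lowest OD600 advanced as hits.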
System: Salmonella enterica serovar Typhimurium SL1344
Test: bacterial growth OD600 after 18 h with compound and polymyxin B; higher = more bacterial growth (less inhibition)
Details: 50 µM, Mueller-Hinton broth

Row | Structure (SMILES) | bacterial growth OD600 (polymyxin B 1 µg/mL) | bacterial growth OD600 (polymyxin B 0.75 µg/mL)
1 | CCN(Cc1cnn(C)c1)CC1CCCN(CCc2cccc(OC)c2)C1 (stereo not given) | 0.835 | 
2 | C=C(C)CNc1ccc(C(=O)N(CC)Cc2nccn2C)cn1 | 0.988 | 
3 | O=C(NCCC1CCCCO1)c1coc(COc2cccc(F)c2)n1 (stereo not given) | 0.972 | 
4 | C=CCNC1CCN(c2ccc(NC(=O)CCc3ccccc3)cc2)CC1 |  | 0.788
5 | COc1ccc([C@@H]2C[C@H]3CN(Cc4ccccc4C)C(=O)[C@]34CCCN24)cc1O | 0.884 | 
6 | O=C(NCCc1ccc(F)cc1)c1cn(C2CCCC2)cc(C(=O)N2CCCCC2)c1=O |  | 0.841
7 | C=C(C)CN(C)C(=O)CC(c1ccccc1)c1ccc(OC)cc1 (stereo not given) | 0.029 | 
8 | COCCN1CCCC2(CCN(C(=O)CCc3cccs3)C2)C1=O (stereo not given) | 1.07 | 
9 | CCN1CCN(C2(C(=O)NCCC3CCCCO3)Cc3ccccc3C2)CC1 (stereo not given) |  | 0.975
10 | COc1cccc(OCC(O)CN2C(=O)CCC2CCNCc2cc3c(cc2Cl)OCO3)c1 (stereo not given) |  | 0.933
11 | O=C(CCc1ccc(=O)[nH]n1)N1CCCC(CNC(=O)C2(c3ccc(Cl)cc3)CC2)C1 (stereo not given) | 0.713 | 
12 | CCCN1CCCC1C(=O)Nc1ccccc1-c1ccc(OC)cc1 (stereo not given) |  | 0.004
13 | O=C(CC(c1ccccc1)c1ccc2c(c1)OCO2)NCCc1c[nH]cn1 (stereo not given) |  | 0.756
14 | CCOc1cc(CN2CCCC(CO)(Cc3ccccc3F)C2)ccc1OC (stereo not given) | 0.787 | 
15 | CCc1csc(CNC(=O)c2ccc(N(C)CC3CCCO3)nc2)n1 (stereo not given) | 1.14 | 
16 | CCN(CC)C(=O)Cn1cc(C(=O)N(C)Cc2n[nH]c3c2CCCC3)nn1 | 0.905 | 
17 | CCC1CN(CC(=O)N2CCN(c3ccc(Cl)cn3)CC2)Cc2cc(OC)ccc2O1 (stereo not given) |  | 0.493
18 | Cc1occc1C(=O)N(C)C(Cc1ccccc1)C1CCN(C(=O)c2cnn(-c3ccccc3)c2)CC1 (stereo not given) |  | 0.301
19 | COc1cc(CNC2CCN(c3ccc(C(=O)NC(C)c4ccccc4)cc3)CC2)cc(OC)c1 (stereo not given) |  | 0.788
20 | CN1CCC(CN(CCc2ccccc2)C(=O)/C=C/c2ccccn2)CC1 | 0.829 | 
21 | CN(CC1CCCN(CCc2ccc(Cl)cc2)C1)C(=O)C1=CCCC1 (stereo not given) | 0.92 | 
22 | COC(=O)CCC(=O)N1CCCC(CCc2ccc(OC)cc2)C1 (stereo not given) |  | 0.743
23 | CO[C@H]1[C@H](NC(=O)c2ccncc2)c2ccccc2C12CCN(C(=O)CCc1scnc1C)CC2 |  | 0.847
24 | OCC1(CCOc2ccccc2)CCN(Cc2cc3c(cc2Cl)OCO3)CC1 | 0.756 | 
25 | COc1cc(CC2(CCC(=O)NC(C)Cc3cccs3)CCC(=O)N2)ccc1F (stereo not given) |  | 0.748
26 | O=C(CCc1ccc2c(c1)OCO2)NC1CC(=O)N(CC2CCCCC2)C1 (stereo not given) | 0.917 | 
27 | COc1cccc2c1OCC(NCCc1ccc(C(F)(F)F)cc1)C2 (stereo not given) |  | 0.517
28 | COc1ccccc1C1(CC(=O)N(Cc2c(C)nn(C)c2C)C2CC2)CC(=O)N(C)C1=O (stereo not given) |  | 1.02
29 | CCC1CN(CC(=O)NCC2CCN(C(C)C)CC2)Cc2cc(OC)ccc2O1 (stereo not given) |  | 0.831
30 | CN(C)C(=O)c1ccc(N2CCC(NCc3ccccc3OC(F)(F)F)CC2)cc1 |  | 0.724

A draw from above in order of count of non-hydrogen atoms, rising:
Row | Structure (SMILES) | bacterial growth OD600 (polymyxin B 1 µg/mL) | bacterial growth OD600 (polymyxin B 0.75 µg/mL)
2 | C=C(C)CNc1ccc(C(=O)N(CC)Cc2nccn2C)cn1 | 0.988 | 
22 | COC(=O)CCC(=O)N1CCCC(CCc2ccc(OC)cc2)C1 (stereo not given) |  | 0.743
15 | CCc1csc(CNC(=O)c2ccc(N(C)CC3CCCO3)nc2)n1 (stereo not given) | 1.14 | 
16 | CCN(CC)C(=O)Cn1cc(C(=O)N(C)Cc2n[nH]c3c2CCCC3)nn1 | 0.905 | 
14 | CCOc1cc(CN2CCCC(CO)(Cc3ccccc3F)C2)ccc1OC (stereo not given) | 0.787 | 
28 | COc1ccccc1C1(CC(=O)N(Cc2c(C)nn(C)c2C)C2CC2)CC(=O)N(C)C1=O (stereo not given) |  | 1.02
19 | COc1cc(CNC2CCN(c3ccc(C(=O)NC(C)c4ccccc4)cc3)CC2)cc(OC)c1 (stereo not given) |  | 0.788

— the supplement of paper PMC12889115
